{"source": "patent EP0346791B1", "about": "“1,2-diarylethylamines for treatment of neurotoxic injury” (priority 1988, dated 1989)", "system": "Male Sprague-Dawley rats", "assay": "Behavioral assay (stereotyped behavior, PCP rating scale)", "format": "in vivo", "experimental": "Nine compounds were tested in comparison with PCP and TCP by an in vivo assay which determined stereotypic behavior in rats treated with the compounds. Male Sprague-Dawley rats weighing 200 to 250 g were used in the behavioral experiments. Each rat was used only once. Rats were anesthetized lightly with ether before a 20-gauge needle was used to make a hole in the rat's skull for i.c.v. injection of drugs at a later date. These rats were allowed to recover for at least 1 day before being used in the behavioral assays. On the day of the experiment, rats were placed individually into plastic rat cages and allowed at least 1 hr to acclimate before testing. Drugs were administered to rats in a random, single-blind fashion.\nDose-response curves for each treatment were determined at the time of maximal behavioral effect. Peak effects were found 5 min after i.c.v. administration of PCP (25-20000 nmol/rat). […] A rating of 5 in the PCP-rating scale was considered as complete stereotyped behavior, that is, a 100% response. […] ED₅₀ values and dose-response curves were evaluated using a computerized Finney assay [Statistical Methods In Biological Assays, 2nd Edn., Hatner Pub. […]\nThe ability of the tested compounds to induce stereotyped behavior was assessed at 2.5, 5 and 10 minutes and thereafter every 5 min up to 1 hr after i.c.v., i.p., or s.c. administration.", "data": [{"compound": "c1ccc(C2(N3CCCCC3)CCCCC2)cc1", "note": "[PCP, Phencyclidine, reference compound]", "values": [{"measurement": "Peak effects (time after administration)", "setting": "i.c.v., 25-20000 nmol/rat", "result": 5, "unit": "min"}, {"measurement": "Peak effects (time after administration)", "setting": "i.p., 2.0-32 mg/kg", "result": 15, "unit": "min"}]}]}
